Data source: PubChem BioAssay AID652259 (Drosophila RNAi Screening Center, 2013)

- Purpose: 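Knock-downs that push a Wingless-driven reporter up or down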 (primary screen)
- System: Drosophila clone 8 imaginal disc epithelial cells
- Knock-down reagent: long dsRNA against Drosophila genes
- Treatment: pathway stimulated by co-transfected Wingless expression plasmid
- Detection: 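Dual luciferase reads per well after Wingless plasmid stimulation: reporter firefly light and Renilla control light; activity is firefly divided by Renilla, a ratio not deposited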
- Direction: firefly reporter light: higher = more Wg reporter light, before normalisation; Renilla control light: higher = more transfected or surviving cells
- Hit rule: 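a knock-down is a candidate when at least two out of four statistical tests show it departing from its plate mean; one test alone signals a weak candidate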
- Calls: active = candidate regulator (raises or lowers reporter); inactive = not a candidate
The deposit covers about 22,000 reagents; below is a random part of those with a known target gene and a result. Of all reagents, 233 (1.1%) were called active. 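Light values are raw, unnormalised plate reads; the ratio scores behind the reporter calls were not deposited.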 A number with no mark means an inactive call. Names joined by + are all predicted targets of the reagent. Not given: the amount of reagent, the time to read-out, the dose of the treatment.

With knock-down of CG1701 [DRSC06641], the screen gave firefly reporter light, replicate 1 = 2009; firefly reporter light, replicate 2 = 4781; Renilla control light, replicate 1 = 757; Renilla control light, replicate 2 = 1808. Knock-down of Pop1 [DRSC17739] came out at: firefly reporter light, replicate 1 = 2363; firefly reporter light, replicate 2 = 5719; Renilla control light, replicate 1 = 1233; Renilla control light, replicate 2 = 2641. CG17991 [DRSC15294] gave firefly reporter light, replicate 1 = 5755; Renilla control light, replicate 1 = 4129. Silencing of CG12674 [DRSC00348] came out at: firefly reporter light, replicate 1 = 1852; firefly reporter light, replicate 2 = 5270; Renilla control light, replicate 1 = 984; Renilla control light, replicate 2 = 2464. mRpS30 [DRSC20107] gave firefly reporter light, replicate 1 = 2112; firefly reporter light, replicate 2 = 6121; Renilla control light, replicate 1 = 816; Renilla control light, replicate 2 = 2040. For AP-2alpha [DRSC00800] the deposit lists firefly reporter light, replicate 1 = 7057; firefly reporter light, replicate 2 = 14763; Renilla control light, replicate 1 = 933; Renilla control light, replicate 2 = 2842.

Against Dhfr [DRSC16646], the values are firefly reporter light, replicate 1 = 19570; Renilla control light, replicate 1 = 5920. For CG33791 + CG18170 [DRSC08523], the values are firefly reporter light, replicate 1 = 7905; Renilla control light, replicate 1 = 4074. CG33791 + CG18170 [DRSC08601] showed firefly reporter light, replicate 1 = 4362; Renilla control light, replicate 1 = 2037. After knock-down of CG7903 [DRSC16338] the results were firefly reporter light, replicate 1 = 6315; Renilla control light, replicate 1 = 3075. Pabp2 [DRSC07501] gave firefly reporter light, replicate 1 = 2198; firefly reporter light, replicate 2 = 4242; Renilla control light, replicate 1 = 336; Renilla control light, replicate 2 = 1466. With knock-down of Cyp6a17 [DRSC07378] the results were firefly reporter light, replicate 1 = 18452; Renilla control light, replicate 1 = 5181.

For Iru [DRSC14457], the entry reads firefly reporter light, replicate 1 = 6291; Renilla control light, replicate 1 = 2359. After knock-down of CG5909 [DRSC15914], the record shows firefly reporter light, replicate 1 = 5561; Renilla control light, replicate 1 = 2397. caps [DRSC11333] showed firefly reporter light, replicate 1 = 5585; Renilla control light, replicate 1 = 2487. For caps [DRSC22224], the values are firefly reporter light, replicate 1 = 4.72e5; firefly reporter light, replicate 2 = 5.13e5; Renilla control light, replicate 1 = 2.14e5; Renilla control light, replicate 2 = 1.99e5. With knock-down of CG6729 [DRSC02984], the record shows firefly reporter light, replicate 1 = 20348; Renilla control light, replicate 1 = 9420. For CG6729 [DRSC22793], the values are firefly reporter light, replicate 1 = 4.49e5; firefly reporter light, replicate 2 = 5.70e5; Renilla control light, replicate 1 = 1.94e5; Renilla control light, replicate 2 = 2.26e5.
